Reference: paper doi:10.1101/2021.03.20.435662
No constants are given. Whether binding was seen depends on the method and setting. Some results given as binding are weak or reduced against the parent protein; the word gives no strength. Where a sequence is shown, tags or fusion partners need not be part of it.

T1: CROWDED NUCLEI 1 (CRWN1), yeast two-hybrid fusion (Arabidopsis thaliana) (UniProt F4HRT5)
T1 sequence: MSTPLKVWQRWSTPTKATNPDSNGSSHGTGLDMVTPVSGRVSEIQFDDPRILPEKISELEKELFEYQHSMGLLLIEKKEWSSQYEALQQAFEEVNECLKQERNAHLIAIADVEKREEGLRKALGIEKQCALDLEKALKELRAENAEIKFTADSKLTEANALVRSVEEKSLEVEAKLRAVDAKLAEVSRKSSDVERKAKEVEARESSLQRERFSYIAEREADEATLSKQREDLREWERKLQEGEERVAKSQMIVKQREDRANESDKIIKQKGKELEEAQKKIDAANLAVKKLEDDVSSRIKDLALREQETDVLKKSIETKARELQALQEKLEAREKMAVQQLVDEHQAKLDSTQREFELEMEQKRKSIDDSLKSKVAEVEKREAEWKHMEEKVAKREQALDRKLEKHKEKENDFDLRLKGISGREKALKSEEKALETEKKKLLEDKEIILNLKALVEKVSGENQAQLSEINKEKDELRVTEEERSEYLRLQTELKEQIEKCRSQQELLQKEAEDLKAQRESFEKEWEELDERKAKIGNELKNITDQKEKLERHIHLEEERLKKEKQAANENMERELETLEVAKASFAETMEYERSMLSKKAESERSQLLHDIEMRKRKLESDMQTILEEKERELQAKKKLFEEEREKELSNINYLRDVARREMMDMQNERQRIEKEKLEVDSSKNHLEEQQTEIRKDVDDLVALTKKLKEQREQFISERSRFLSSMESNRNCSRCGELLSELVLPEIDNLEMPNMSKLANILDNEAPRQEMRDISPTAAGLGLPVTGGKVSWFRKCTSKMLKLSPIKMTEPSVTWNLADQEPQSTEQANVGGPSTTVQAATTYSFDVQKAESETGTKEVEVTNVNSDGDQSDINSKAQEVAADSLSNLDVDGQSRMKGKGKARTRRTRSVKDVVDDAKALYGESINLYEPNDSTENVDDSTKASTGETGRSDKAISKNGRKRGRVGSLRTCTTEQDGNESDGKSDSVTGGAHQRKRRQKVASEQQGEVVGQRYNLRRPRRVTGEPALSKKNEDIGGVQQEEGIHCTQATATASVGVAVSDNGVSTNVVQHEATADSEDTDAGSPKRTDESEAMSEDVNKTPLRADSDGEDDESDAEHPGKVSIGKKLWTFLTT

T2: CROWDED NUCLEI 2 (CRWN2), yeast two-hybrid fusion (Arabidopsis thaliana) (UniProt Q9SAF6)
T2 sequence: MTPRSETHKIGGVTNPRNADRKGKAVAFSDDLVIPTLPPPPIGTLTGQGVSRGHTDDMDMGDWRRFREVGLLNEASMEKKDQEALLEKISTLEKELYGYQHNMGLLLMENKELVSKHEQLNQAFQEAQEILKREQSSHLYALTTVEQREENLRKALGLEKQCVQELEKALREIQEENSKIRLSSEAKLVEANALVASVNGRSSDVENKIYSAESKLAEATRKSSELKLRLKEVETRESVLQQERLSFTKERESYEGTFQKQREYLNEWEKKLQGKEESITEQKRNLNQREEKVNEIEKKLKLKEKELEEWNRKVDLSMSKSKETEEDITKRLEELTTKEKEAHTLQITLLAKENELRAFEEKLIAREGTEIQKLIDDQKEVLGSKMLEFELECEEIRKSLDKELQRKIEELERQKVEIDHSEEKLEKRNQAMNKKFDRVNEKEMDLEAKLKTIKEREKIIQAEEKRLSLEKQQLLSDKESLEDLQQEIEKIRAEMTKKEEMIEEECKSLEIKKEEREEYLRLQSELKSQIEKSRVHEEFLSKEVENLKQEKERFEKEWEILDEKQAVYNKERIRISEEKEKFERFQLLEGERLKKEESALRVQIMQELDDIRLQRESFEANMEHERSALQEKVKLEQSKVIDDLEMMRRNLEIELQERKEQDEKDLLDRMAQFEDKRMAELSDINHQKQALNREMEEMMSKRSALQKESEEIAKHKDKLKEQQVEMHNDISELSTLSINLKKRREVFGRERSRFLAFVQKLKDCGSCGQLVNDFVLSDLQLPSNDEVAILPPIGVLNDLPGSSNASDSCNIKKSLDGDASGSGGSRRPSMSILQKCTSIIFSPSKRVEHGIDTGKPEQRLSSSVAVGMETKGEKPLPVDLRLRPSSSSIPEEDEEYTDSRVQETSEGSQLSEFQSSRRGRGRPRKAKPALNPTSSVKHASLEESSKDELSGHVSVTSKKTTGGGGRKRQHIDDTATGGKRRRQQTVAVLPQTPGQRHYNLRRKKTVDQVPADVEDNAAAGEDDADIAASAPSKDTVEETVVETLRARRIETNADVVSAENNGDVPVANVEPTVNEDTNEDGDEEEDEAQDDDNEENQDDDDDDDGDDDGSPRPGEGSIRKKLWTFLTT

B1: KAKU4 N-terminus (1-310), yeast two-hybrid fusion (domain or fragment, UniProt Q949W6-2 1-310)
chain: MDSVSGYAAGAGQPRVGGKIVRPRRTAVVRTPCERPVQRSRDPPQQNPSWISRLVYKPASVIASGAGKFISSVVFSDSSSSSEEDEDSSSDIDGDEDVEKNNPDFTEEDLLSAQQPSIQRLSSKRVIEQLLLQETFAREEGDRLIDIIKARVVDHPSVPSAIETSHDDYGLTSDVNVGEMSNTAVMEARKWLEEKKSGSSSKYKATEDGAGSPVDVAKSYMRARLPWGSPAANNLDFRSPSSARVQGTPLPYSAGNFSSSKLKRKSGSNQSWNIQDEIRKVRAKATEEMLKSPSSVASLEPKYSPYVLAT
B2: KAKU4 full-length protein (amino-acids 1-574), yeast two-hybrid fusion (protein, UniProt Q949W6-2 1-574)
chain: MDSVSGYAAGAGQPRVGGKIVRPRRTAVVRTPCERPVQRSRDPPQQNPSWISRLVYKPASVIASGAGKFISSVVFSDSSSSSEEDEDSSSDIDGDEDVEKNNPDFTEEDLLSAQQPSIQRLSSKRVIEQLLLQETFAREEGDRLIDIIKARVVDHPSVPSAIETSHDDYGLTSDVNVGEMSNTAVMEARKWLEEKKSGSSSKYKATEDGAGSPVDVAKSYMRARLPWGSPAANNLDFRSPSSARVQGTPLPYSAGNFSSSKLKRKSGSNQSWNIQDEIRKVRAKATEEMLKSPSSVASLEPKYSPYVLATDMLKGNASSLNADGAVRNEQSRALPNSAIPTSEHNQTTEANQAVKETGVLHTRSRGVGLEETFISTQGVKPSEDTNTAPQSGTAVDDFNDQDGDFIQPTSTIGNTTNAVLALGATLDPTGNSCIPKDVFETSKEADEIGASRHTSNGFPSSSPSSPAVMEGQPKPTPPEETKASQPIAEIHGDDMTVGNGSDGAINNESNDSHSSASNSSSTHEEEWLPGDQSLPNSNSASSSPGNTKVLAYSRRGRGRGRGRGRGGRGKGRAK
B3: KAKU4 C-terminus (311-574), yeast two-hybrid fusion (domain or fragment, UniProt Q949W6-2 311-574)
chain: DMLKGNASSLNADGAVRNEQSRALPNSAIPTSEHNQTTEANQAVKETGVLHTRSRGVGLEETFISTQGVKPSEDTNTAPQSGTAVDDFNDQDGDFIQPTSTIGNTTNAVLALGATLDPTGNSCIPKDVFETSKEADEIGASRHTSNGFPSSSPSSPAVMEGQPKPTPPEETKASQPIAEIHGDDMTVGNGSDGAINNESNDSHSSASNSSSTHEEEWLPGDQSLPNSNSASSSPGNTKVLAYSRRGRGRGRGRGRGGRGKGRAK

Tests used:
[1] = target: T1, CROWDED NUCLEI 1 (CRWN1), yeast two-hybrid fusion (Arabidopsis thaliana); experiment: two-hybrid
[2] = target: T2, CROWDED NUCLEI 2 (CRWN2), yeast two-hybrid fusion (Arabidopsis thaliana); experiment: two-hybrid

Binder	binding [1]	binding [2]
B1	binds	binds
B2	binds	binds
B3	no binding	no binding
